The results in this text go back to patent US8076285B2 (Aicuris GmbH & Co. KG, priority 2006, dated 2011).

The nature of this series: general procedure: Fmoc solid-phase peptide synthesis; 2-chlorotrityl chloride resin (Iris Biotech), 0.85 mmol/g; TBTU/DIEA. The settings on record: trifluoroacetate; for cyclisation yield: cyclisation step.

As to “[3-tert-Butyl-D-alanyl]-[3-tert-butyl-L-alanyl]-[(3R)-3-amino-L-phenylalanyl]-[(3R)-3-hydroxy-L-leucyl]-L-leucyl-D-arginyl-L-isoleucyl-L-seryl-glycyl-[(3S)-3-hydroxy-L-asparaginyl]-L-serine C^1.11-N^3.3-lactam bistrifluoroacetate”, the step yield (late stage modification step) was 35% of theory.
Take “[3-tert-Butyl-D-alanyl]-[3-tert-butyl-L-alanyl]-[(3R)-3-amino-L-phenylalanyl]-[(3R)-3-hydroxy-L-leucyl]-L-leucyl-D-lysyl-L-isoleucyl-L-allothreonyl-glycyl-L-seryl-L-serine C^1.11-N^3.3-lactam”: the step yield (late stage modification step, from compound 454A) is given as 62% of theory.
As for “[(3R)-3-Hydroxy-L-leucyl]-L-leucyl-(N^5-benzyloxycarbonyl-D-ornithyl)-L-isoleucyl-L-allothreonyl-glycyl-L-seryl-L-serine bistrifluoroacetate”, the “final purity (method not given)” value (late stage modification step) stood at 28% pure.
On to “[(3R)-N^2-(Benzyloxycarbonyl)-3-amino-L-phenylalanyl]-[(3R)-3-hydroxy-L-leucyl]-L-leucyl-D-arginyl-L-isoleucyl-L-seryl-glycyl-L-seryl-L-serine C^1.9-N^3.1-lactam trifluoroacetate”, for which, under “from 363A”, the cyclisation yield is 81% of theory.
Regarding “[(3R)-N^2-(Benzyloxycarbonyl)-3-{(tert-butoxycarbonyl)amino}-3-(pyridin-3-yl)-L-alanyl]-[(3R)-3-hydroxy-L-leucyl]-L-leucyl-D-arginyl-L-isoleucyl-L-allothreonyl-glycyl-[(3R)-3-hydroxy-L-asparaginyl]-L-serine bistrifluoroacetate”, the step yield (coupling step) is 49% of theory.
On to “{(3R)-N^2-[(Benzyloxy)carbonyl]-3-amino-L-phenylalanyl}-[(3R)-3-hydroxy-L-leucyl]-L-leucyl-D-arginyl-L-isoleucyl-L-allothreonyl-glycyl-[(3S)-3-hydroxy-L-asparaginyl]-L-serine C^1.9-N^3.1-lactam trifluoroacetate”, for which the cyclisation yield is 78.3% of theory.
As to “[(3R)-3-Amino-L-phenylalanyl]-[(3R)-3-hydroxy-L-leucyl]-L-leucyl-D-arginyl-L-isoleucyl-L-allothreonyl-glycyl-L-allothreonyl-L-serinate C^1.9-N^3.1-lactam bishydrochloride”, the step yield (late stage modification step) was 86% of theory.
As to “[(3R)-3-Amino-L-phenylalanyl]-[(3R)-3-hydroxy-L-leucyl]-L-leucyl-D-arginyl-L-isoleucyl-L-allothreonyl-D-seryl-L-seryl-L-serine C^1.9-N^3.1-lactam bistrifluoroacetate”, where the note is “late stage modification step, of theory from 397A”, the step yield is reported as 93% of theory.
For “N^2-(Benzyloxycarbonyl)-N^3-{N^2.1-tert-butoxycarbonyl[(3R)-3-hydroxy-L-leucyl]-L-leucyl-D-arginyl-L-isoleucyl-L-allothreonyl-glycyl-[(3S)-3-hydroxy-L-asparaginyl]-L-seryl}-(3R)-3-amino-L-alanine 2-(trimethylsilyl)ethyl ester trifluoroacetate”, the step yield (coupling step) was 69.1% of theory.
In the case of “[N^2-(Benzyloxycarbonyl)-3-tert-butyl-D-alanyl]-[3-tert-butyl-L-alanyl]-{(3R)-3-amino-L-phenylalanyl}-{(3R)-3-hydroxy-L-leucyl}-L-leucyl-D-arginyl-L-isoleucyl-L-allothreonyl-glycyl-L-asparaginyl-L-serine C^1.11-N^3.3-lactam trifluoroacetate”, the cyclisation yield is 80.0% of theory.
As to “[(3R)-N^2-(Benzyloxycarbonyl)-3-amino-L-phenylalanyl]-[(3R)-3-hydroxy-L-leucyl]-L-leucyl-D-arginyl-L-isoleucyl-L-allothreonyl-glycyl-L-threonyl-L-serine C^1.9-N^3.1-lactam trifluoroacetate”, the cyclisation yield was 65% of theory.
Same read-out and setting: the result for “[(3R)-N^2-(Benzyloxycarbonyl)-3-amino-L-phenylalanyl]-[(3R)-3-hydroxy-L-leucyl]-L-leucyl-D-arginyl-L-isoleucyl-L-allothreonyl-glycyl-[(3S)-3-hydroxy-L-asparaginyl]-L-serine C^1.9-N^3.1-lactam trifluoroacetate” reads 73% of theory.
“[(3R)-N^2-(tert-Butoxycarbonyl)-3-hydroxy-L-leucyl]-L-leucyl-D-arginyl-L-isoleucyl-L-allothreonyl-glycyl-L-alanyl-L-serine trifluoroacetate”: under “late stage modification step”, the step yield was 99% of theory.
Turning to “[(3R)-N^2-(Benzyloxycarbonyl)-3-{(tert-butoxycarbonyl)amino}-L-phenylalanyl]-L-threonyl-L-leucyl-D-arginyl-l-isoleucyl-L-allothreonyl-glycyl-L-seryl-L-serine trifluoroacetate”, where the note is “coupling step”, the step yield is 64% of theory.
“[(3R)-N^2-(Benzyloxycarbonyl)-3-{(tert-butoxycarbonyl)amino}-L-phenylalanyl]-[(3R)-3-hydroxy-L-leucyl]-[3-tertbutyl-L-alanyl]-D-arginyl-L-isoleucyl-L-allothreonyl-glycyl-L-seryl-L-serine trifluoroacetate”: the step yield (coupling step) is 74% of theory.
On the same count and under the same terms, the result for “[N^2-(Benzyloxycarbonyl)-D-leucyl]-L-leucyl-[(3R)-N^3-(tert-butoxycarbonyl)-3-amino-L-phenylalanyl]-{(3R)-3-hydroxy-L-leucyl}-L-leucyl-D-arginyl-L-isoleucyl-L-threonyl-glycyl-L-asparaginyl-L-serine trifluoroacetate” reads 72.5% of theory; that for “{(3R)-N^2-[(9H-Fluoren-9-ylmethoxy)carbonyl]-3-[(tert-butoxycarbonyl)amino]-L-phenylalanyl}-[(3R)-3-hydroxy-L-leucyl]-L-leucyl-D-arginyl-L-isoleucyl-L-allothreonyl-glycyl-[(2S)-2-amino-4-benzyloxycarbonylaminobutyryl]-L-serine trifluoroacetate”, 27% of theory.
For the substance “[3-tert-Butyl-D-alanyl]-[3-tert-butyl-L-alanyl]-[(3R)-3-amino-L-phenylalanyl]-[(3R)-3-hydroxy-L-leucyl]-L-leucyl-D-arginyl-L-isoleucyl-L-allothreonyl-glycyl-[(2S)-2,3-diaminopropionyl]-L-serine C^1.11-N^3.3-lactam”, the step yield (late stage modification step, from compound 432A) is 44% of theory.
Take “{(3R)-N^2-[(9H-Fluoren-9-ylmethoxy)carbonyl]-3-amino-L-phenylalanyl}-[(3R)-3-hydroxy-L-leucyl]-L-leucyl-(N^6-benzyloxycarbonyl-D-lysyl)-L-isoleucyl-L-allothreonyl-glycyl-L-seryl L-serine bistrifluoroacetate”: for the setting “late stage modification step”, the step yield is 90% of theory.
Same read-out and setting: the result for “[(3R)-N^2-(Benzyloxycarbonyl)-3-amino-L-phenylalanyl]-[(3R)-3-hydroxy-L-leucyl]-[3-tertbutyl-L-alanyl]-D-arginyl-L-isoleucyl-L-allothreonyl-glycyl-L-seryl-L-serine bistrifluoroacetate” reads 99% of theory.
Regarding “[3-tert-Butyl-D-alanyl]-[3-tert-butyl-L-alanyl]-[(3R)-3-amino-L-phenylalanyl]-[(3R)-3-hydroxy-L-leucyl]-L-leucyl-D-arginyl-L-isoleucyl-L-allothreonyl-glycyl-L-ornithyl-L-serine C^1.11-N^3.3-lactam”, the step yield (late stage modification step, from compound 441A) is 6% of theory.
With “[(3R)-3-Hydroxy-L-leucyl]-L-leucyl-{N^5-[benzyloxycarbonyl]-N^5-[{[benzyloxycarbonyl]-amino}(imino)methyl]-D-ornithyl}-L-isoleucyl-L-allothreonyl-glycyl-L-asparaginyl-L-serine”, the step yield (late stage modification step) was 27.9% of theory.
For the substance “[3-tert-Butyl-D-alanyl]-[3-tert-butyl-L-alanyl]-[(3R)-3-amino-3-(pyridin-3-yl)-L-alanyl]- [(3R)-3-hydroxy-L-leucyl]-L-leucyl-D-arginyl-L-isoleucyl-L-allothreonyl-glycyl-[(3S)-3-hydroxy-L-asparaginyl]-L-serine C^1.11-N^3.3-lactam”, the step yield (late stage modification step, from compound 470A) is listed as 56% of theory.
As for “[(3R)-3-Hydroxy-L-leucyl]-L-leucyl-D-arginyl-L phenylalanlyl-L-allothreonyl-glycyl-L-seryl-L-serine bistrifluoroacetate”, the “final purity (method not given)” value (late stage modification step) is recorded as 66% pure.
With “[N^2-(Benzyloxycarbonyl)-3-tert-butyl-D-alanyl]-[3-tert-butyl-L-alanyl]-{(3R)-3-[(tert-butoxycarbonyl)amino]-L-phenylalanyl}-{(3R)-3-hydroxy-L-leucyl}-L-leucyl-D-arginyl-L-isoleucyl-L-allothreonyl-glycyl-L-asparaginyl-L-serine trifluoroacetate”, for the setting “coupling step”, the step yield is on record as 86.7% of theory.
“[3-tert-Butyl-D-alanyl]-[3-tert-butyl-L-alanyl]-[(3R)-3-amino-L-phenylalanyl]-[(3R)-3-hydroxy-L-leucyl]-L-leucyl-D-arginyl-L-isoleucyl-L-allothreonyl-glycyl-L-asparaginyl-L-serine C^1.11-N^3.3-lactam bistrifluoroacetate”: the step yield runs as follows: (late stage modification step, run 1) 96.6% of theory; (late stage modification step, run 2) 93.5% of theory.
“[N^2-(Benzyloxycarbonyl)-3-tert-butyl-D-alanyl]-[3-tert-butyl-L-alanyl]-[(3R)-3-amino-L-phenylalanyl]-[(3R)-3-hydroxy-L-leucyl]-L-leucyl-D-arginyl-L-isoleucyl-L-allothreonyl-glycyl-L-seryl-L-serine C^1.11-N^3.3-lactam hydrochloride”: for the setting “coupling step”, the step yield is given as 70% of theory.
With “[(3R)-3-Hydroxy-L-leucyl]-L-leucyl-D-arginyl-L-isoleucyl-L-allothreonyl-glycyl-glycyl-L-serine bistrifluoroacetate”, the “final purity (method not given)” value (late stage modification step) is reported as 60% pure.
Consider “[(3-R)-3-Hydroxy-L-leucyl]-L-leucyl-D-arginyl-L-isoleucyl-L-allothreonyl-glycyl-L-threonyl-L-serine bistrifluoroacetate”, for which the step yield (late stage modification step) was 94% of theory.
